Reference: paper PMC10318496
Results are given in words; binding and its absence hold for the method and conditions named. In cells and extracts the contact can be indirect. Some entries that bind do so weakly or less than the wild type.

By UniProt entry, the sequences of proteins in these tests, tags left out.
UniProt O15169: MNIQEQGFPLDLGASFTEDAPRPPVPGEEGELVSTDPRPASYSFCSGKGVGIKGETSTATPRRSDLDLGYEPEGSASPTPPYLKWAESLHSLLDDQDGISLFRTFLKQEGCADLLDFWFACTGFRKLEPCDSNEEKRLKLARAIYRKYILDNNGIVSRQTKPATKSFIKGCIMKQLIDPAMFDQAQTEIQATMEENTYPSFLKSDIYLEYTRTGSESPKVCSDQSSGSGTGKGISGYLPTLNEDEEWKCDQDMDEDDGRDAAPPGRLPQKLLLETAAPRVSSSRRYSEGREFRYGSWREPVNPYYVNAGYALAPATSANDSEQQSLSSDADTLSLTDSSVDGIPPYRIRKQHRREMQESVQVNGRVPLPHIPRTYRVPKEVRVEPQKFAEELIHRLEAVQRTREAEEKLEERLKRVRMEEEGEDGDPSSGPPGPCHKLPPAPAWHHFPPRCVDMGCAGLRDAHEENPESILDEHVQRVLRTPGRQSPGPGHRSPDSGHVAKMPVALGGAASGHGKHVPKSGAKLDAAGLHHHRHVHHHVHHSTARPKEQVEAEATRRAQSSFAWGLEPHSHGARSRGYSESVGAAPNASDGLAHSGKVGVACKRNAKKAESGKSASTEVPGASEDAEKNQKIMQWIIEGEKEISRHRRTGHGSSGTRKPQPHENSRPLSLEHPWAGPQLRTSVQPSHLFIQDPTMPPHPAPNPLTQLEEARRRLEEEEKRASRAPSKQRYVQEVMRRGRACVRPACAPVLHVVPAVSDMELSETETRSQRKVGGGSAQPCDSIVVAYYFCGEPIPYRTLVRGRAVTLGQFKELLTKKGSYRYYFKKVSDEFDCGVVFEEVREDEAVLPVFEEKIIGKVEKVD
UniProt O94972: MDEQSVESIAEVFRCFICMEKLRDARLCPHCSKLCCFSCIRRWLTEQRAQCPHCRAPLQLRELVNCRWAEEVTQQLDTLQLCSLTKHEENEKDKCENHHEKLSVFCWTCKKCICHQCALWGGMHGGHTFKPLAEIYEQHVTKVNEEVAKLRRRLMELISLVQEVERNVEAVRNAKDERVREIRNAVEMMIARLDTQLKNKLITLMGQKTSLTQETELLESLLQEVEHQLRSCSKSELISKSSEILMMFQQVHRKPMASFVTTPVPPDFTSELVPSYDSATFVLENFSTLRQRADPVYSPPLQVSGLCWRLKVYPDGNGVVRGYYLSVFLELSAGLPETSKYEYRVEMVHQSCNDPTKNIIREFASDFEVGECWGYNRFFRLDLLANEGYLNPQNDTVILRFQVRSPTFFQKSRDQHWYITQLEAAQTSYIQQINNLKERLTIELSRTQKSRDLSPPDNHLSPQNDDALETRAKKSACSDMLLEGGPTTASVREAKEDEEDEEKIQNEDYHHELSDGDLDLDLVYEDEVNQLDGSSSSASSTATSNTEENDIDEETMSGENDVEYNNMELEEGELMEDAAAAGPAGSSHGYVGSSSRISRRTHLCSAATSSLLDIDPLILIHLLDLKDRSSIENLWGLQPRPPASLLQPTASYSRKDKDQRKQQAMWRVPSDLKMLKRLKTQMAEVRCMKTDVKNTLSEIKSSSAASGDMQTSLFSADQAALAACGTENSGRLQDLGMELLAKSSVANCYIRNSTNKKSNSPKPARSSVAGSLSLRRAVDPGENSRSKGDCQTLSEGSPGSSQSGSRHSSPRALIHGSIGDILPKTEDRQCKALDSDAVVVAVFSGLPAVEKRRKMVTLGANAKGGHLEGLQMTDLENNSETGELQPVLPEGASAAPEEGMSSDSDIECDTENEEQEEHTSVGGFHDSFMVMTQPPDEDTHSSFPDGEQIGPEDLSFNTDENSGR

Target: Axin1 (human (endogenous in GBC-SD)) (UniProt O15169)
Experiment: co-IP; GBC-SD cell lysates immunoprecipitated overnight at 4°C with the indicated or anti-IgG antibodies; protein A/G-agarose beads for two hours; western blot

binding: binds
Substance: Tripartite motif-containing 37 (TRIM37) (from UniProt O94972 1-964)
